Experimental data as given in PMC5908797, “Evolutionary plasticity of the NHL domain underlies distinct solutions to RNA recognition”.
For part of these data: A negative result means that nothing was seen under these conditions. For part of these data: At least one verdict rests on a figure or table, not on a statement of the authors. A weaker result is weaker than the reference pair of the same experiment. For part of these data: Protein sequences can lack the tags named with them. For part of these data: For at least one entry, the source does not settle the construct or the ends of the probe.

By UniProt entry, the sequences of proteins in these tests, tags left out. Residues count along the entry.
UniProt E7FAM5, 435-824: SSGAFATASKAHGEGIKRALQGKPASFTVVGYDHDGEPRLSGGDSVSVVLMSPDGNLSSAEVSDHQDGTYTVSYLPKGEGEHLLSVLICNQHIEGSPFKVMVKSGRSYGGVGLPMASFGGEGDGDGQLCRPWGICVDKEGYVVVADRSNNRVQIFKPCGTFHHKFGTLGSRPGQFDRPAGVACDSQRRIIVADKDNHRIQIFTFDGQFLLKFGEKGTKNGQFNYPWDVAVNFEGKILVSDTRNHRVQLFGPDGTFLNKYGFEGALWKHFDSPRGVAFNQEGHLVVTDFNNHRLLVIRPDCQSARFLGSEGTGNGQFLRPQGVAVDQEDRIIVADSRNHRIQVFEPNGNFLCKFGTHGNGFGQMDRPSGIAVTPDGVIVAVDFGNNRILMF

Assays:
[1] = target: T1, CeLIN41 filamin-NHL (Caenorhabditis elegans) (UniProt Q9U489); experiment: fluorescence polarization; settings: FP: 20 mM HEPES, 200 mM NaCl, 0.05% Tween20, 100 nM Cy5-RNA, 30 min room temp, recombinant protein, residues 691-1147, protein details: N-terminal Strep tag, TEV site, label: 5'-Cy5
T1 sequence (looked up): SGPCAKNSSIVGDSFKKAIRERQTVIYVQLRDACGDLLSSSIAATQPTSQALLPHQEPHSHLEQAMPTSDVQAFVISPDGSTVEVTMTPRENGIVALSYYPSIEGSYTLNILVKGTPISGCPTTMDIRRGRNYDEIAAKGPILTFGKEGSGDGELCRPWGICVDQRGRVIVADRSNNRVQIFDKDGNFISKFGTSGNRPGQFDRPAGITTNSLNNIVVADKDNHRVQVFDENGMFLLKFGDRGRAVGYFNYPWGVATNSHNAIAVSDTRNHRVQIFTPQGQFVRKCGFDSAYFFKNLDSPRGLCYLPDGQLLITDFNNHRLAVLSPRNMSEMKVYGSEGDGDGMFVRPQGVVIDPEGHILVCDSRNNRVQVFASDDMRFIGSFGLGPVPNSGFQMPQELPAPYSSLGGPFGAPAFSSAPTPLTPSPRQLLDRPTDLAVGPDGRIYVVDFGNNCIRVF

[2] = target: DrLIN41 filamin-NHL (Danio rerio) (UniProt E7FAM5); experiment: fluorescence polarization; settings: stated very similar to CeLIN41; FP: 20 mM HEPES, 200 mM NaCl, 0.05% Tween20, 100 nM Cy5-RNA, 30 min room temp; recombinant protein; residues 435-824; protein details: N-terminal His, 3C cleavable (not removed); label: 5'-Cy5
[3] = target: T1, CeLIN41 filamin-NHL (Caenorhabditis elegans); experiment: EMSA; settings: EMSA: 1x of 2x buffer (20 mM Hepes pH 8, 100 mM KCl, 200 mM NaCl, 0.2 mM EDTA, 20 mM DTT, 2 mM MgCl2, 2 mM CaCl2, 0.2 mM ZnSO4, 60% glycerol, heparin, E. coli tRNA), recombinant protein, residues 691-1147, protein details: N-terminal Strep tag, TEV site, label: 32P (radioactive) body label

Row | Sequence | binding result [2] | binding result [1] | also measured
1 | GGAGGCCACCUCC [L1.6 (Mut6) stem -1/+1 U-A->G-C] | binds more weakly |  | binding result ([1]; most severe effect of stem mutants): binds more weakly
2 | GCUGACCAACUCC [Ctrl (5-nt loop)] | no binding |  | 
3 | GUUCCGAACCAAUUCGCCUAGCGAACCUUGGACUCCAACUCCGUUUUUACUCUUUUCUGAAAAGAGCCUACUAAAUAUUGGAACUAUAAUCAAACUAUUCCAUCAAAUCGACACACCUACUAGAUAUCAAAUAUCUAAUACUGGAACCAAGGCUUGGGUAACCUGAAACUGUGCGAAUUUGGAGCAGAAAUAUU [lin-29A mut2] |  |  | binding result ([3]; smaller complexes): binds more weakly
4 | GGAGACCAUCUCC [L1.4 (Mut4) stem -1/+1 U-A->A-U] | binds more weakly | binds more weakly | 
5 | GGAGCCCAGCUCC [L1.5 (Mut5) stem -1/+1 U-A->C-G] | binds more weakly | binds more weakly | 
6 | GUUCCGAACCAAUUCGCCUAGCGAACCUUGGACUCCAACUCCGUUUUUACUGUUUUCUGAAAAGAGCCUACUAAAUAUUGGAACUAUAAUCAAACUAUUGGAUCAAAUCGACACACCUACUACAUAUCAAAUAUCUAAUACUGGAACCAAGGCUUGGGUAACCUGAAACUGUGCGAAUUUGGAGCAGAAAUAUU [lin-29A mut1] |  |  | binding result [3]: binds more weakly
7 | GGAGUCCCACUCC [L1.2 (Mut2) loop III A->C] | binds more weakly | binds more weakly | 
8 | GGAGUCCGACUCC [L1.3 (Mut3) loop III A->G] | binds more weakly |  | binding result ([1]; least effect of loop III mutants): binds more weakly
9 | GGAGUCCUACUCC [L1.1 (Mut1) loop III A->U] | binds more weakly | binds more weakly | 
